In publication PMC6016017:
Results are given in words; binding and its absence hold for the method and conditions named. For some of these results: Binding seen in cells or lysates may run through a third protein. Some results given as binding are weak or reduced against the parent protein; the word gives no strength. Tags and fused reporters may be left off the sequences shown.

T1: Arabidopsis VPS38 (VACUOLAR PROTEIN SORTING-38) fused to the GAL4 DNA-binding domain (Arabidopsis thaliana) (UniProt Q8S9J3)
T1 sequence: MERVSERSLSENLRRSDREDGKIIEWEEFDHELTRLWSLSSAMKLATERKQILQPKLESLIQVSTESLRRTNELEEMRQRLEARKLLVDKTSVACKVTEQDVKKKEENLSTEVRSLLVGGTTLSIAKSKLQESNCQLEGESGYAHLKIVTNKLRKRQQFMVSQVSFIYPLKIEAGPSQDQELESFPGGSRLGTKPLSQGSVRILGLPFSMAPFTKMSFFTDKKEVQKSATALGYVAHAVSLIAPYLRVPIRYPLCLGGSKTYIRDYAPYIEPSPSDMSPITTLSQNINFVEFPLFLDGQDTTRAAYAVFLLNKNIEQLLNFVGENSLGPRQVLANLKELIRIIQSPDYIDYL

T2: Arabidopsis ATG6 (VPS30/Beclin1), split-YFP fusion (nYFP or cYFP) for BiFC (Arabidopsis thaliana) (UniProt Q9M367)
T2 sequence: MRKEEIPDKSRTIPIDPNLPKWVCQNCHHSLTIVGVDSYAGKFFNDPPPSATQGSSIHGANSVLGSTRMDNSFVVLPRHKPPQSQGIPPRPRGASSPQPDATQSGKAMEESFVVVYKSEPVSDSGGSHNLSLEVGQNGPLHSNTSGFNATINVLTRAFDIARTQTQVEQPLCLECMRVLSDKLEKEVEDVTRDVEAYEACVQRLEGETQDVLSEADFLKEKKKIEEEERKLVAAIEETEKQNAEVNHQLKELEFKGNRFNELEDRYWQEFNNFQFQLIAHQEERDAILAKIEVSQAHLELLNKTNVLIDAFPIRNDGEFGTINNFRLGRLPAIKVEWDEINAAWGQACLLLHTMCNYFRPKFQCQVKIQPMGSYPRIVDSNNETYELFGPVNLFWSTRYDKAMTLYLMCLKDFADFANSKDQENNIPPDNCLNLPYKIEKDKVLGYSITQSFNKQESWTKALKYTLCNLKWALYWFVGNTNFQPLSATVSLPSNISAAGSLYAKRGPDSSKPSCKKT

T3: Arabidopsis VPS38, split-ubiquitin fusion (Cub-PLV bait or NubG prey) (Arabidopsis thaliana) (UniProt Q8S9J3)
T3 sequence: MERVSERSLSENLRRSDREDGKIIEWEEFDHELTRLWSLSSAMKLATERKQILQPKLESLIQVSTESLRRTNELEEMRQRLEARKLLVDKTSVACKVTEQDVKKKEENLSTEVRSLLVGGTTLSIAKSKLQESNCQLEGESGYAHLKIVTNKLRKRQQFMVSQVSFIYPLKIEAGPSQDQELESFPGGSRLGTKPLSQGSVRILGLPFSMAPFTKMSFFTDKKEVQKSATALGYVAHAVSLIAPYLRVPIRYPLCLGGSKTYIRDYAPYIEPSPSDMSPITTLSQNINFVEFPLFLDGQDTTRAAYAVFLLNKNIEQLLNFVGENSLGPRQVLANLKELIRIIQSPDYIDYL

B1: Arabidopsis ATG6 (VPS30/Beclin1) fused to the GAL4 activation domain (protein, UniProt Q9M367 1-517)
chain: MRKEEIPDKSRTIPIDPNLPKWVCQNCHHSLTIVGVDSYAGKFFNDPPPSATQGSSIHGANSVLGSTRMDNSFVVLPRHKPPQSQGIPPRPRGASSPQPDATQSGKAMEESFVVVYKSEPVSDSGGSHNLSLEVGQNGPLHSNTSGFNATINVLTRAFDIARTQTQVEQPLCLECMRVLSDKLEKEVEDVTRDVEAYEACVQRLEGETQDVLSEADFLKEKKKIEEEERKLVAAIEETEKQNAEVNHQLKELEFKGNRFNELEDRYWQEFNNFQFQLIAHQEERDAILAKIEVSQAHLELLNKTNVLIDAFPIRNDGEFGTINNFRLGRLPAIKVEWDEINAAWGQACLLLHTMCNYFRPKFQCQVKIQPMGSYPRIVDSNNETYELFGPVNLFWSTRYDKAMTLYLMCLKDFADFANSKDQENNIPPDNCLNLPYKIEKDKVLGYSITQSFNKQESWTKALKYTLCNLKWALYWFVGNTNFQPLSATVSLPSNISAAGSLYAKRGPDSSKPSCKKT
B2: Arabidopsis VPS15, split-YFP fusion (nYFP or cYFP) for BiFC (protein, UniProt Q9M0E5 1-1494)
chain: MGNKIARTTQVSATEYYLHDLPSSYNLVLKEVLGRGRFLKSIQCKHDEGLVVVKVYFKRGDSIDLREYERRLVKIKDVFLSLEHPHVWPFQFWQETDKAAYLVRQYFYSNLHDRLSTRPFLSLVEKKWLAFQLLLAVKQCHEKDICHGDIKCENVLLTSWNWLYLADFASFKPTYIPYDDPSDFSFFFDTRGQRLCYLAPERFYEHGGETQVAQDAPLKPSMDIFAVGCVIAELFLEGQPLFELAQLLAYRRGQHDPSQHLEKIPDPGIRKMILHMIQLEPEARLSAEDYLQNYVGVVFPNYFSPFLHTLYCCWNPLPSDMRVATCQGIFQEILKKMMENKSGDEIGVDSPVTSNPMNASTVQETFANHKLNSSKDLIRNTVNSKDEIFYSISDALKKNRHPFLKKITMDDLGTLMSLYDSRSDTYGTPFLPVEGNMRCEGMVLIASMLCSCIRNIKLPHLRREAILLLRSCSLYIDDDDRLQRVLPYVVALLSDPTAIVRCAAMETLCDILPLVRDFPPSDAKIFPEYIFPMLSMLPEDTEESVRICYASNIAKLALTAYGFLIHSFQLSDVGVLNELNSQQISTTPASETPSHLQKANGNAQLQQLRKTIAEVVQELVMGPKQTPNVRRALLQDIGELCFFFGQRQSNDFLLPILPAFLNDRDEQLRSVFFEKIVYVCFFVGQRSVEEYLLPYIDQALSDQTEAVIVNALECLSTLCKSSFLRKRALLQMIECVYPLLCYPSQWVRRAVVTFIAASSECLGAVDSYAFIAPVIRSYLSRLPASIASEEGLLSCLKPPVTREVVYRIFEKTRNPEFMAKQRKMWYSSSPQSKDWESVDLFDKDAGELNSVECRAEQKQSVEGKKQIKSASKQPEVQGKYAEKDAKLRIPRNPRPNASNTVELRDPVYPEKLQFSGFMAPYVSGANSFIEPENIPLYSFSMDKRAATNPPVASESSLQMNSLGMGSLSVPWMDSMSKSFNLASSVPVPKLISGSFHVGTNPKQFYRVVHEPESRENDQISSAISKFQDLGVSSSSKSASVTSEDASSPADLVGEPSLSRTSVPDSGWKPRGVLVAHLQEHRSAVNDIATSSDHSFFVSASDDSTVKVWDSRKLEKDISFRSRLTYHLEGSRGMCTTMLRNSTQVVVGASDGVIHMFSIDHISRGLGNVVEKYSGIVDIKKKDVKEGALVSLLNYTADSLSGPMVMYSTQNCGIHLWDTRSDLDAWTLKANPEEGYVSSLVTSPCGNWFVSGSSRGVLTLWDLRFRVPVNSWQYPIICPIEKMCLCFLPPSVSVSTTMKPLIYVAAGCNEVSLWNAEGGSCHQVLRVANYENETDVSEFQWKLPSNKVNPKPNHRQNMSSKYRIEELNEPPPRLPGIRSLLPLPGGDLLTGGTDLKIRRWDYSSPERSYCICGPSLKGVGNDDFYELKTNTGVQFVQETKRRPLATKLTAKAVLAAAATDTAGCHRDSVQSLASVKLNQRLLISSSRDGAIKVWK
B3: Arabidopsis VPS15, split-ubiquitin fusion (Cub-PLV bait or NubG prey) (protein, UniProt Q9M0E5 1-1494)
chain: MGNKIARTTQVSATEYYLHDLPSSYNLVLKEVLGRGRFLKSIQCKHDEGLVVVKVYFKRGDSIDLREYERRLVKIKDVFLSLEHPHVWPFQFWQETDKAAYLVRQYFYSNLHDRLSTRPFLSLVEKKWLAFQLLLAVKQCHEKDICHGDIKCENVLLTSWNWLYLADFASFKPTYIPYDDPSDFSFFFDTRGQRLCYLAPERFYEHGGETQVAQDAPLKPSMDIFAVGCVIAELFLEGQPLFELAQLLAYRRGQHDPSQHLEKIPDPGIRKMILHMIQLEPEARLSAEDYLQNYVGVVFPNYFSPFLHTLYCCWNPLPSDMRVATCQGIFQEILKKMMENKSGDEIGVDSPVTSNPMNASTVQETFANHKLNSSKDLIRNTVNSKDEIFYSISDALKKNRHPFLKKITMDDLGTLMSLYDSRSDTYGTPFLPVEGNMRCEGMVLIASMLCSCIRNIKLPHLRREAILLLRSCSLYIDDDDRLQRVLPYVVALLSDPTAIVRCAAMETLCDILPLVRDFPPSDAKIFPEYIFPMLSMLPEDTEESVRICYASNIAKLALTAYGFLIHSFQLSDVGVLNELNSQQISTTPASETPSHLQKANGNAQLQQLRKTIAEVVQELVMGPKQTPNVRRALLQDIGELCFFFGQRQSNDFLLPILPAFLNDRDEQLRSVFFEKIVYVCFFVGQRSVEEYLLPYIDQALSDQTEAVIVNALECLSTLCKSSFLRKRALLQMIECVYPLLCYPSQWVRRAVVTFIAASSECLGAVDSYAFIAPVIRSYLSRLPASIASEEGLLSCLKPPVTREVVYRIFEKTRNPEFMAKQRKMWYSSSPQSKDWESVDLFDKDAGELNSVECRAEQKQSVEGKKQIKSASKQPEVQGKYAEKDAKLRIPRNPRPNASNTVELRDPVYPEKLQFSGFMAPYVSGANSFIEPENIPLYSFSMDKRAATNPPVASESSLQMNSLGMGSLSVPWMDSMSKSFNLASSVPVPKLISGSFHVGTNPKQFYRVVHEPESRENDQISSAISKFQDLGVSSSSKSASVTSEDASSPADLVGEPSLSRTSVPDSGWKPRGVLVAHLQEHRSAVNDIATSSDHSFFVSASDDSTVKVWDSRKLEKDISFRSRLTYHLEGSRGMCTTMLRNSTQVVVGASDGVIHMFSIDHISRGLGNVVEKYSGIVDIKKKDVKEGALVSLLNYTADSLSGPMVMYSTQNCGIHLWDTRSDLDAWTLKANPEEGYVSSLVTSPCGNWFVSGSSRGVLTLWDLRFRVPVNSWQYPIICPIEKMCLCFLPPSVSVSTTMKPLIYVAAGCNEVSLWNAEGGSCHQVLRVANYENETDVSEFQWKLPSNKVNPKPNHRQNMSSKYRIEELNEPPPRLPGIRSLLPLPGGDLLTGGTDLKIRRWDYSSPERSYCICGPSLKGVGNDDFYELKTNTGVQFVQETKRRPLATKLTAKAVLAAAATDTAGCHRDSVQSLASVKLNQRLLISSSRDGAIKVWK
B4: Arabidopsis VPS38, split-YFP fusion (nYFP or cYFP) for BiFC (protein, UniProt Q8S9J3 1-352)
chain: MERVSERSLSENLRRSDREDGKIIEWEEFDHELTRLWSLSSAMKLATERKQILQPKLESLIQVSTESLRRTNELEEMRQRLEARKLLVDKTSVACKVTEQDVKKKEENLSTEVRSLLVGGTTLSIAKSKLQESNCQLEGESGYAHLKIVTNKLRKRQQFMVSQVSFIYPLKIEAGPSQDQELESFPGGSRLGTKPLSQGSVRILGLPFSMAPFTKMSFFTDKKEVQKSATALGYVAHAVSLIAPYLRVPIRYPLCLGGSKTYIRDYAPYIEPSPSDMSPITTLSQNINFVEFPLFLDGQDTTRAAYAVFLLNKNIEQLLNFVGENSLGPRQVLANLKELIRIIQSPDYIDYL

Key:
[1] = target: T1, Arabidopsis VPS38 (VACUOLAR PROTEIN SORTING-38) fused to the GAL4 DNA-binding domain (Arabidopsis thaliana); assay: two-hybrid; GAL4-based Y2H, HIS3 reporter; VPS38 on the DNA-binding domain, ATG6 on the activation domain; yeast MaV203, 2-day growth at 30°C on medium lacking histidine, leucine and tryptophan with 25 mM 3-amino-1,2,4-triazole
[2] = target: T2, Arabidopsis ATG6 (VPS30/Beclin1), split-YFP fusion (nYFP or cYFP) for BiFC (Arabidopsis thaliana); assay: split reporter; BiFC with nYFP (1-174) and cYFP (175-239) fusions transiently co-expressed in N. benthamiana leaf epidermal cells; confocal microscopy 36 h after infiltration
[3] = target: T3, Arabidopsis VPS38, split-ubiquitin fusion (Cub-PLV bait or NubG prey) (Arabidopsis thaliana); assay: two-hybrid; split-ubiquitin (Protein A/LexA/VP16) mating system; baits on Cub-PLV, preys on NubG; diploid THY.AP4 THY.AP5 yeast, growth on medium lacking histidine, leucine, tryptophan, uracil and adenine

Binder | binding [2] | also measured
B1 | – | binding [1]: binds
B2 | binds | –
B3 | – | binding [3]: binds
B4 | binds | –
